The assay in a line: qHTS Assay to Find Inhibitors of Chronic Active B-Cell Receptor Signaling. The settings on record: ABC-DLBCL IkBa-CBG/CBR reporter, luminescence ratio (green luciferase fused to IkBa over red control in TMD8 lymphoma cells), 4 h. In outline:
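TMD8 ABC-DLBCL cells carrying doxycycline-inducible green luciferase fused to IkappaBalpha plus unfused red luciferase were exposed to compounds (up to 46 uM) for 4 hrs at 37C. Activity came from the overlap-corrected green/red luminescence ratio.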
For orientation: In qHTS, concentration-response curves come from the screen itself.

[1] abbreviates: measured here: CBR red luminescence, cell number.
The mark [2] stands for this setting: measured here: IkBa-CBG green luminescence.

SMILES strings stand for the structures. Some of the results follow. Shown are side measurements of this screen, not its main read-out; they come without a call. Compounds called inactive in the main read-out are mostly missing here. Words in brackets tell the shape of the fitted curve; partial curves, single points and poor fits give uncertain potencies.

With `C=CCn1cc(C(=O)NCc2ccc3c(c2)OCO3)c(=O)c2cc(S(=O)(=O)N(CC)CC)ccc21`, the AC50 under setting [1] was 3.26 µM [rising, partial curve].
Turning to `CCOc1ccc(NC(=O)C2=C(C)C(=O)OC23CCC(C)CC3)cc1` (stereo not drawn), under setting [1], the AC50 was 6.51 µM [falling, single point].
Consider `COc1cc(NC(=O)C(C)Oc2ccccc2)ccc1NC(=O)COc1ccccc1` (stereo not drawn), for which the AC50 under setting [1] is 10 µM [rising, partial curve].
As to `COc1ccccc1NS(=O)(=O)c1ccc(OC)c([N+](=O)[O-])c1`, the AC50 under setting [1] was 4.47 µM [rising, single point].
On the same count and under the same terms, next, `O=C(CSCc1nc2ccccc2[nH]1)N1CCN(c2cccc(Cl)c2)CC1`: 3.55 µM [rising, single point]; `O=C(COc1cccc2cccnc12)Nc1ccccc1N1CCOCC1`: 3.16 µM [rising, full curve, poor fit].
Same read-out and setting: next, `CCCCOc1ccc(Cl)cc1CSc1nnc(CC)n1N`: 6.51 µM [falling, single point].
Same read-out and setting: as for `CCCC(=O)Nc1nc(-c2ccc3c(c2)CCN3S(C)(=O)=O)cs1`, the figure is 4.47 µM [rising, partial curve, poor fit]; as for `Cc1c(C(=O)NCCSCc2ccc(Cl)cc2Cl)cccc1[N+](=O)[O-]`, 35.5 µM [falling, single point]; as for `CCN(CCN(C)C)C(=O)c1ccc2c(c1NCCO)C(=O)c1ccccc1C2=O`, 0.1 µM [rising, full curve, poor fit].
Regarding `Oc1ccc(N=Nc2n[nH]c(-c3ccc(Br)cc3)n2)cc1`, the AC50 is, setting by setting: under setting [1], 0.0651 µM [falling, full curve]; under setting [2], 29.1 µM [rising, partial curve, poor fit].
As to `COc1ccc2[nH]c3c4c(ccc3c2c1)C(=O)C=CC4=O`, the AC50 under setting [1] was 35.5 µM [falling, single point].
Still for that read-out and setting: next, `CCCCn1c(NCc2ccc3c(c2)OCO3)nc2ccccc21`: 6.51 µM [falling, partial curve]; `OCC1CCCN(c2nc(CN3CCCCC3)nc3scc(-c4ccccc4)c23)C1` (stereo not drawn): 29.1 µM [falling, single point]; `CN(CC(=O)NCCc1ccc(F)cc1)Cc1cccc(Cl)c1`: 15.8 µM [falling, partial curve, poor fit].
On the same count and under the same terms, next, `COc1cccc(NC(=S)N(CCc2c(C)[nH]c3ccccc23)Cc2cccs2)c1`: 6.51 µM [rising, partial curve, poor fit].
In the case of `COCCCn1c(SCc2cccc(OC)c2)nc2cc(OC)c(OC)cc2c1=N`, under setting [1], the AC50 was 7.08 µM [falling, partial curve].
In the case of `C=CCOc1ccc(CNCCc2ccc(S(N)(=O)=O)cc2)cc1`, the AC50 under setting [1] was 35.5 µM [falling, single point].
As to `O=c1[nH]c2sc3c(c2c(=O)n1Cc1ccccc1)CCC3`, under setting [1], the AC50 was 6.31 µM [falling, partial curve].
The same measure, in the same setting: next, `Cc1ccc(C(=O)NCC(=O)NCC(=O)OCc2ccc(Cl)cc2)cc1`: 29.1 µM [rising, partial curve, poor fit]; `Cc1ccnc(NC(=O)CCC(=O)N(CC(=O)NCCc2ccccc2)c2ccccc2F)c1`: 20 µM [falling, single point].
As for `Nc1nc(Nc2cccc(Cl)c2)sc1C(=O)c1ccc(F)cc1`, the AC50 runs as follows: under setting [1], 5.62 µM [falling, full curve, poor fit]; under setting [2], 12.6 µM [rising, single point].
Turning to `Cc1noc(C)c1COc1ccc(C(=O)NCCc2ccccn2)cc1`, the AC50 under setting [1] was 28.2 µM [rising, single point].
As to `CC(C)c1ccc(NC(=S)N2CCCC(c3ccc(F)cc3)=N2)cc1`, under setting [1], the AC50 was 14.1 µM [rising, single point].
`CCCNC(=S)Nc1ccc(Br)cc1`: the AC50 under setting [1] is 3.98 µM [rising, partial curve, poor fit].
The same measure, in the same setting: as for `CCOc1ccc2nc(NCCCNC(=O)c3cc(OC)c(OC)c(OC)c3)c(C#N)cc2c1`, the figure is 0.1 µM [rising, full curve, poor fit]; as for `O=C(NC1CCCC1)C(c1cccs1)N(Cc1ccco1)C(=O)Cn1nnc(-c2cccs2)n1` (stereo not drawn), 29.1 µM [falling, single point].
For `CC(OC(=O)/C(C#N)=C/c1ccc(N(C)C)cc1)C(=O)N(C)Cc1ccccc1` (stereo not drawn), the AC50 under setting [1] was 2.82 µM [rising, single point].
With `O=C(Nc1ccccc1)C1=C[C@H](C2CC2)C[C@H](OCCCCO)O1`, the AC50 under setting [1] was 3.16 µM [rising, full curve].
On the same count and under the same terms, next, `COc1ccc(CCN2C(=O)CN(Cc3ccccc3)CC2=O)cc1OC`: 23.1 µM [rising, partial curve, poor fit]; `CCOC(=O)c1c(C)[nH]c(C)c1S(=O)(=O)N(C)CC(=O)NCc1ccc(C)cc1`: 3.55 µM [rising, full curve]; `O=C(CSc1nnc2ccccn12)NNC(=O)c1cccc(Cl)c1`: 2.91 µM [rising, partial curve].
The same measure, in the same setting: as for `O=C(O)c1cccnc1SC1CC(=O)N(c2ccc(OC(F)F)cc2)C1=O` (stereo not drawn), the figure is 35.5 µM [rising, single point].
The same measure, in the same setting: as for `COc1cc(OC)cc(C(=O)N[C@H](C(=O)OCC(=O)Nc2cccc(F)c2)C(C)C)c1`, the figure is 0.58 µM [rising, partial curve, poor fit]; as for `CC(=O)c1ccc(NC(=O)COc2ccc3c(c2)OCO3)cc1`, 15.8 µM [falling, partial curve, poor fit].
On to `O=[N+]([O-])C1=CC=C2C(=NC3(CCCCC3)N2O)C1=NCCO`, for which, under setting [1], the AC50 is 11.2 µM [rising, partial curve].
The same measure, in the same setting: next, `CCOC(=O)C/C(C)=N\Nc1nc(-c2ccccc2)cs1`: 7.08 µM [falling, partial curve]; `O=C(Cc1ccccc1)Nc1ccnn1C1CCN(Cc2ccc(CO)o2)CC1`: 1.58 µM [rising, partial curve, poor fit].
Still for that read-out and setting: next, `CC(=O)Oc1ccc(-c2cccc(C(=O)O)c2)cc1`: 16.4 µM [falling, single point].
As for `O=C(Nc1ncccn1)c1ccc(C(F)(F)F)cc1`, under setting [1], the AC50 was 6.51 µM [falling, partial curve].
Still for that read-out and setting: as for `COc1cc2c(cc1OC)C1(Nc3c-2c(Cc2ccccc2)nn3-c2ccccc2)C(=O)Nc2ccccc21` (stereo not drawn), the figure is 7.31 µM [rising, partial curve, poor fit].

In general, AC50 refers to the midpoint of the concentration-response curve, whichever way the signal moves.

For the origin of these results see PubChem BioAssay AID493014 (National Center for Advancing Translational Sciences (NCATS), 2011).
